Experimental data taken from PubChem BioAssay AID743255 (National Center for Advancing Translational Sciences (NCATS), 2014).
In all, about 390,000 compounds went through this assay and about 910 (0.23%) were called active. The shares of active, inactive and inconclusive entries below differ from those in the screen. Calls come from the whole dose curve; as a rule, active = well fitted inhibition curve with a large enough effect; inconclusive = small, poorly fitted or top-dose-only effect; inactive = no such curve, though single readings can be large or run the other way. Potencies beside an inconclusive call are fits to weak or partial responses and may not hold up.

The chains behind the UniProt entries cited, without tags or fusion partners. Where a name states a change or a piece, a line headed by the entry shows the natural chain unless it says otherwise.
UniProt O94782: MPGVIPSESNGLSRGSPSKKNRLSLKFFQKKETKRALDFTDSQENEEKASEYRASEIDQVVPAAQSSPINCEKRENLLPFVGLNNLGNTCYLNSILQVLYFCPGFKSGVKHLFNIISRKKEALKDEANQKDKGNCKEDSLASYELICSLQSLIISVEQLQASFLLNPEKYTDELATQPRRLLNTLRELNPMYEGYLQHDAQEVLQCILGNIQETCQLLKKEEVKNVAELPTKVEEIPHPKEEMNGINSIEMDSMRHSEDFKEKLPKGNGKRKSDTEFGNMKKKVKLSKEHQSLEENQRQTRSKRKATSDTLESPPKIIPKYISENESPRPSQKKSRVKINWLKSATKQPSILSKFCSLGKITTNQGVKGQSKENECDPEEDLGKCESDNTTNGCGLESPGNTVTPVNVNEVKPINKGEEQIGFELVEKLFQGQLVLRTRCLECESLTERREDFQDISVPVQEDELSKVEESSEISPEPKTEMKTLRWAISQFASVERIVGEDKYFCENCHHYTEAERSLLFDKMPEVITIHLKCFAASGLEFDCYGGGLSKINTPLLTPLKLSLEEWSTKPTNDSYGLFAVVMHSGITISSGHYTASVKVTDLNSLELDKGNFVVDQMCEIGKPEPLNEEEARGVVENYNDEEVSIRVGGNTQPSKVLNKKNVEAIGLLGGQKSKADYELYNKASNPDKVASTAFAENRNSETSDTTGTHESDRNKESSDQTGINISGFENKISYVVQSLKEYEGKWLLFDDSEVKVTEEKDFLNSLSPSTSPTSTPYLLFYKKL

Molecular target: Ubiquitin carboxyl-terminal hydrolase 1 (Homo sapiens) (UniProt O94782)
Assay: Inhibitors of USP1/UAF1: Primary Screen; note: nearly all actives have a fitted effect of over 60% in size
Conditions: recombinant USP1/UAF1, Ub-Rhodamine cleavage fluorescence; activity change, negative = inhibition: at 57.1 µM (top of the series)
Summary of the method: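 Step one: compound is pinned into 1nM USP1/UAF1 in HEPES pH 7.8 buffer with TCEP. Step two: 15 min room-temperature incubation. Step three: Ub-Rho (150nM final) starts cleavage, tracked by fluorescence over six one-minute reads.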
% is set by controls: 0 for no effect and ±100 for the full control effect; potency is the fitted concentration of half-maximal effect.

SMILES	Potency	activity change, negative = inhibition
CCc1ccccc1NC(=O)c1nn(-c2ccc(C)cc2)c(=O)c2c1c1ccccc1n2C	inactive	–
Cc1ccccc1N1C(=O)c2cccc3c(N(C)CCO)ccc(c23)C1=O	inconclusive: 31.6 µM [inhibitor, partial curve, poor fit]	–
CCn1c(CNC(=O)COc2ccc(C(C)C)cc2)nnc1SCC(=O)Nc1cc(F)ccc1C	inactive	–
Cc1cc(/C=C2/C(=N)N3C(=NC2=O)SN=C3S(C)(=O)=O)c(C)n1-c1ccccc1F	inconclusive: 44.7 µM [inhibitor, partial curve]	–
COC(=O)CCCC1=CC2=CC(=O)C(C)(OC(=O)c3cccs3)C(=O)C2=CN1c1ccccc1 (stereo unspecified)	inconclusive: 56.2 µM [inhibitor, single point]	–
COc1cc(NC(=O)Nc2ccccc2OC)c(OC)cc1NC(=O)CN1CCCCC1	inconclusive: 79.4 µM [inhibitor, partial curve, poor fit]	–
Cc1cc2c(=O)n(C)c(SCC(=O)Nc3cccc(O)c3)nc2s1	inactive	–
O=c1c2cnn(-c3ccc(F)cc3)c2ncn1Cc1ccccc1Cl	inactive	–
COc1ccc(OC)c(NC(=O)C(C)n2c(=O)cc(C)c3c(C)nn(-c4ccccc4)c32)c1 (stereo unspecified)	inactive	–
CCN1C(C)=C(C)S/C1=C1\SC(=S)N(N)C1=O	inconclusive: 50.1 µM [inhibitor, partial curve, poor fit]	–
COc1ccc(-c2cn3c(n2)sc2cc(C(=O)NCCC4=CCCCC4)ccc23)cc1	inactive	–
CCOC(=O)c1cnc(-c2ccccc2)[nH]c1=O	inactive	–
CN(C)c1cccc2c1c(NC(=O)c1ccc(F)cc1)nn2C	inconclusive: 31.6 µM [inhibitor, partial curve]	–
CCOc1ccc(-c2nnn(CCC#N)n2)cc1OC	–	inconclusive: -9.3% [inhibitor]
Cc1ccc(C(=O)N2CCC3(CC2)Oc2ccc(Cl)cc2C(=O)C32CC(c3ccc(Cl)cc3)=NO2)s1 (stereo unspecified)	inconclusive: 44.7 µM [inhibitor, partial curve, poor fit]	–
COc1ccccc1/C=C/CN1CCCC(CO)(Cc2cccc(Cl)c2)C1 (stereo unspecified)	inconclusive: 4.47 µM [inhibitor, single point]	–
CCCOc1ccc(NC(=O)CC2C(=O)N(CC)C(=S)N2CCCN2CCN(Cc3ccccc3)CC2)cc1 (stereo unspecified)	inconclusive: 50.1 µM [inhibitor, partial curve, poor fit]	–
COc1ccc(N/C=C/C(=O)C(F)(F)F)cc1	inactive	–
C/C(=N\NC(=O)c1nnn(-c2nonc2N)c1CN1CCCCC1)c1ccccc1O	inconclusive: 6.31 µM [inhibitor, single point]	–
O=C(NC1CC(=O)N(c2ccc(F)cc2)C1)C1CCCC1 (stereo unspecified)	inconclusive: 0.708 µM [inhibitor, full curve, poor fit]	–
CCOC(=O)Cc1ccc(NC(=O)N(Cc2ccc(OC)cc2)C2CCN(C(C)=O)CC2)cc1	inconclusive: 44.7 µM [inhibitor, single point]	–

SMILES	Potency	activity change, negative = inhibition
CCNc1ccc(C(=O)OCC(=O)NC(=O)NCC(C)C)cc1[N+](=O)[O-]	inconclusive: 6.31 µM [inhibitor, full curve, poor fit]	–
CCOC(=O)c1cc2n(c1N)-c1ccccc1C2=O	inconclusive: 31.6 µM [inhibitor, partial curve, poor fit]	–
Cc1cc(NC(=O)c2ccccc2F)ccc1-c1nc2ccccc2s1	inactive	–
COc1ccc(CCn2c(C)nc3c(c(=O)c4ccccc4n3C)c2=O)cc1	inactive	–
O=C(OCC(=O)N1CCN(c2ccccc2)CC1)c1ccc([N+](=O)[O-])s1	inconclusive: 44.7 µM [inhibitor, partial curve, poor fit]	–
CCOc1ccc(NC(=O)Nc2ccon2)cc1	inactive	–
O=C(O)CCCC(=O)Nc1ccc(N2CCCC2)cc1	inconclusive: 31.6 µM [inhibitor, partial curve]	–
CN(C)c1cccc2c1c(NC(=O)Nc1ccc(Cl)cc1Cl)nn2C	inconclusive: 44.7 µM [inhibitor, partial curve, poor fit]	–
c1ccc(N2CCN(c3nc4ccccc4n4cnnc34)CC2)cc1	inconclusive: 44.7 µM [inhibitor, partial curve, poor fit]	–
COc1ccc(CCNc2nc3c(-c4cccc(C(F)(F)F)c4)nnn3c3ccccc23)cc1OC	inconclusive: 3.98 µM [inhibitor, full curve]	–
Cc1noc(C(=O)Nc2c(C)n(C)n(-c3ccccc3)c2=O)c1Cl	inactive	–
COC(=O)CN1C(=O)[C@H]2[C@@H](c3ccc(C)o3)N3C(=O)CN(Cc4ccccn4)C(=O)[C@@]3(Cc3ccccc3)[C@H]2C1=O	inconclusive: 63.1 µM [inhibitor, partial curve, poor fit]	–
Cc1ccc(NC(=O)c2ccc(NC3=NC4CS(=O)(=O)CC4S3)cc2)cc1 (stereo unspecified)	inconclusive: 70.8 µM [inhibitor, partial curve, poor fit]	–
CCOC(=O)C1CCN(C(=O)c2cccc(S(=O)(=O)Nc3ccc(C)cc3C)c2)CC1	inconclusive: 31.6 µM [inhibitor, partial curve, poor fit]	–
O=[N+]([O-])c1cc(Br)c(O)c(/C=N/Nc2nnnn2-c2cccc3ccccc23)c1	inactive	–
CCc1cc(/C(Cc2ccccn2)=N\Nc2ccccc2)c(O)cc1O	inconclusive: 4.47 µM [inhibitor, partial curve]	–
Cc1cccc(S(=O)(=O)NNC(=O)c2sc(C)nc2C)c1	inconclusive: 7.08 µM [inhibitor, single point]	–
CCC(C)CCCCCCCCCCC(=O)O (stereo unspecified)	inconclusive: 50.1 µM [inhibitor, partial curve, poor fit]	–
O=C(NCCc1csc(-c2cccc(F)c2)n1)C(=O)Nc1cc(F)ccc1F	inconclusive: 50.1 µM [inhibitor, partial curve, poor fit]	–
Cc1nc(-c2ccc(Cl)cc2)sc1C1(C)CC(c2cccc([N+](=O)[O-])c2)=NO1 (stereo unspecified)	inconclusive: 56.2 µM [inhibitor, partial curve, poor fit]	–

Single values from above:
Potency, CN(C)c1cccc2c1c(NC(=O)Nc1ccc(Cl)cc1Cl)nn2C is entered as inconclusive: 44.7 µM [inhibitor, partial curve, poor fit]
Potency, CCOC(=O)c1cc2n(c1N)-c1ccccc1C2=O is entered as inconclusive: 31.6 µM [inhibitor, partial curve, poor fit]
Potency, O=C(O)CCCC(=O)Nc1ccc(N2CCCC2)cc1 is entered as inconclusive: 31.6 µM [inhibitor, partial curve]
